The target of this experiment is T1, SHMT2-BirA*-Flag (mouse) (UniProt Q9CZN7).
T1 sequence: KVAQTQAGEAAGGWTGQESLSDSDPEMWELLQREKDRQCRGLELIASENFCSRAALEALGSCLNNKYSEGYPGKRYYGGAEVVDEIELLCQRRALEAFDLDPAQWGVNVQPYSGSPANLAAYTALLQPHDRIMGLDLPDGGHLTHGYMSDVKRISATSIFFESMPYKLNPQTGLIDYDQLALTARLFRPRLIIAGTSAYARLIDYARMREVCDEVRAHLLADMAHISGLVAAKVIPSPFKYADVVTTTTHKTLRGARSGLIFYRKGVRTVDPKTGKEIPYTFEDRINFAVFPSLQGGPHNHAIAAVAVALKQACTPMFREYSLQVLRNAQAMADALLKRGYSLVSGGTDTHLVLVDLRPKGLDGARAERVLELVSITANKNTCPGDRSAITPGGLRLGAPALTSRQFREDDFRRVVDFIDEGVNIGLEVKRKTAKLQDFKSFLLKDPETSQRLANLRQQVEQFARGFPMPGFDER
Put plainly: proximity labelling; BioID in HeLa cells with Tet-induced SHMT2-BirA*-Flag; biotinylated proteins purified on immobilized streptavidin, trypsin digestion, MS; compared with BirA*-Flag alone and CHCHD2-BirA*-Flag (n = 3; >32-fold, p <0.05).

Amino acid sequences for entries named in this document (tags omitted). Residues count along the entry.
UniProt Q9NWU1, residues 28-459: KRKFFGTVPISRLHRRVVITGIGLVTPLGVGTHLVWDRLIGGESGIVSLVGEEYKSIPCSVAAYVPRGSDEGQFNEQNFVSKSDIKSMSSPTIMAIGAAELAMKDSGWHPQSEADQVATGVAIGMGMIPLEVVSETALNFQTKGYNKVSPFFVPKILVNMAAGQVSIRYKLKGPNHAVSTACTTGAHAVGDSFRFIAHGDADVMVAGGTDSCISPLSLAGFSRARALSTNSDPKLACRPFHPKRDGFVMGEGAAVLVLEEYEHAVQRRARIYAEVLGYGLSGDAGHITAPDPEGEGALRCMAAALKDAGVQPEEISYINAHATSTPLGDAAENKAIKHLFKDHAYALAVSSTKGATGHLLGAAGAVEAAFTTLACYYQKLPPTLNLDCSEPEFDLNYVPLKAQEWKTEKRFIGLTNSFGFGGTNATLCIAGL
UniProt P61604: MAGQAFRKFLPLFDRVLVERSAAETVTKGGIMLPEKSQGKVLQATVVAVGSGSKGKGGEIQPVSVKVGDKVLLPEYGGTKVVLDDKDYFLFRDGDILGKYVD
UniProt Q9Y4W6, residues 67-797: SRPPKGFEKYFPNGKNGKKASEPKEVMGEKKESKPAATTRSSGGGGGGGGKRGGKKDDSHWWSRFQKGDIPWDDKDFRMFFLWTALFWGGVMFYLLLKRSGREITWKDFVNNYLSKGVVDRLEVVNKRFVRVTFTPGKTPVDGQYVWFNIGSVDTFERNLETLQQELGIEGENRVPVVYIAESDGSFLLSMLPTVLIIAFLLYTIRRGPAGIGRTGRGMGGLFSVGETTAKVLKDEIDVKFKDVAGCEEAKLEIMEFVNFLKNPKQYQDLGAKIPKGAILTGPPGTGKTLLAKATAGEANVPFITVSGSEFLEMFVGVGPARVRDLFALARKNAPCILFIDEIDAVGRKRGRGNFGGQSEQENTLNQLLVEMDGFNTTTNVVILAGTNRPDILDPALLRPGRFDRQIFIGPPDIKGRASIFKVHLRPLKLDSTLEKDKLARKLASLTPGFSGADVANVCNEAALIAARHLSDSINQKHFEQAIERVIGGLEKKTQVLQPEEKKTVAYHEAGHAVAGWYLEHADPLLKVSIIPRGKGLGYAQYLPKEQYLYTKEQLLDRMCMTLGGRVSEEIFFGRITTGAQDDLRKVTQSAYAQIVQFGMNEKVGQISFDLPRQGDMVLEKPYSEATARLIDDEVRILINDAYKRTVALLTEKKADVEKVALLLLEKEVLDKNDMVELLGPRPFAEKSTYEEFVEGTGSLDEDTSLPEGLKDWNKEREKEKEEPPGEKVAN
UniProt O76031, residues 57-633: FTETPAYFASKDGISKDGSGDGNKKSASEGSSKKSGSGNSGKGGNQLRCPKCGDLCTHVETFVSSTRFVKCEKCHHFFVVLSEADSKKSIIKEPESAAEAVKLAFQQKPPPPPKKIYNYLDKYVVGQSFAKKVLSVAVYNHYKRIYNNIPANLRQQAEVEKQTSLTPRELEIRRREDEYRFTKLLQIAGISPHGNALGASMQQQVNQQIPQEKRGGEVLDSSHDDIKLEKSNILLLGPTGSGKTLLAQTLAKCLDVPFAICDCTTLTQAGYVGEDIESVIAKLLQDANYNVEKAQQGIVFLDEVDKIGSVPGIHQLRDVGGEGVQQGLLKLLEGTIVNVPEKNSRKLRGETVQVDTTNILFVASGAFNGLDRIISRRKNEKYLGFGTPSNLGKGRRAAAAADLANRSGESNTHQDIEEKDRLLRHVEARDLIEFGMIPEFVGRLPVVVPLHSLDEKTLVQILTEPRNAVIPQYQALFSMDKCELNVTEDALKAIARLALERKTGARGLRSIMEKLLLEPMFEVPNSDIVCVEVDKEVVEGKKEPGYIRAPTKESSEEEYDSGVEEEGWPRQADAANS
UniProt P14927: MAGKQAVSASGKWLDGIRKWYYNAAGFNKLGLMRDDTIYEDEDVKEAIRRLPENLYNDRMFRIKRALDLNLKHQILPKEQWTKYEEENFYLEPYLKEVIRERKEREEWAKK
UniProt A4D1E9: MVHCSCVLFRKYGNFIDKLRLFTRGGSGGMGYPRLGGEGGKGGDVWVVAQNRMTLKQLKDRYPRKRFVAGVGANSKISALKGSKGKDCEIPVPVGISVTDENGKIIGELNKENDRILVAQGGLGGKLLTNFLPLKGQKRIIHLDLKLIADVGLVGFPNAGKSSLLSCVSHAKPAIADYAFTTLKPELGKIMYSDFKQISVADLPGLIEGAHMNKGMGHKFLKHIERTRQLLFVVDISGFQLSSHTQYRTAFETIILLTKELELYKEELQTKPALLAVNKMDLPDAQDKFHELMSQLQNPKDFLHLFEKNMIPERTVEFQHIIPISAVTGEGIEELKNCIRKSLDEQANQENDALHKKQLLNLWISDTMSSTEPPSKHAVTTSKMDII
UniProt P00367, residues 54-558: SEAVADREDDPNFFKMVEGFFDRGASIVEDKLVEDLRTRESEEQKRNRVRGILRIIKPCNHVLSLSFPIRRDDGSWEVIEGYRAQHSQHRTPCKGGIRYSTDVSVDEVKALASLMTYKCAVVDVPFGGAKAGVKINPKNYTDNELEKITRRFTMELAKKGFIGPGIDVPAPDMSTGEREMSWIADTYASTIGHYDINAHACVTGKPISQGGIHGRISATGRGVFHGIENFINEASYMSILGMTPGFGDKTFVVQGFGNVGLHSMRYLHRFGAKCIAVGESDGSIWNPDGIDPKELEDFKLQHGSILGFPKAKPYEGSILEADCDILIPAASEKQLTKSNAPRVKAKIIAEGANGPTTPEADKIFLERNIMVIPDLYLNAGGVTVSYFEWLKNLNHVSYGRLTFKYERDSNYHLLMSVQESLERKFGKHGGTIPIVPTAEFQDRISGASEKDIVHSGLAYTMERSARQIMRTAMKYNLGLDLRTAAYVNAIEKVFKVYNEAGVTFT
UniProt O94925, residues 55-669: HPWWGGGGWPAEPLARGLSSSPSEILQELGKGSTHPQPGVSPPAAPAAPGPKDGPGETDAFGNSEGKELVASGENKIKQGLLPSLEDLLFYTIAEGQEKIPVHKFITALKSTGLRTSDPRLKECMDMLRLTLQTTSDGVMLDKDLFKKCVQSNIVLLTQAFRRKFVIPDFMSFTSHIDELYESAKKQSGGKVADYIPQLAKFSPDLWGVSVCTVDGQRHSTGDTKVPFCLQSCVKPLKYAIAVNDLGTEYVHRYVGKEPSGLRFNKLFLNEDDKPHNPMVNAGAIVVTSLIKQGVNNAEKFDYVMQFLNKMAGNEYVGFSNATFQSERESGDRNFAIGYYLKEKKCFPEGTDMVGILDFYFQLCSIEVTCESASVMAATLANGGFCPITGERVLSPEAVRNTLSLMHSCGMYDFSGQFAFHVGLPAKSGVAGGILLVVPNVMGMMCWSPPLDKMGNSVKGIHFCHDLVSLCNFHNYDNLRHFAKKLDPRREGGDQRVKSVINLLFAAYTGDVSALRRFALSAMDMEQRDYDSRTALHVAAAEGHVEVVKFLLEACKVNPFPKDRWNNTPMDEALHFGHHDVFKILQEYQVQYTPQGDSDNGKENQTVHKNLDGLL
UniProt Q9BX68, residues 18-163: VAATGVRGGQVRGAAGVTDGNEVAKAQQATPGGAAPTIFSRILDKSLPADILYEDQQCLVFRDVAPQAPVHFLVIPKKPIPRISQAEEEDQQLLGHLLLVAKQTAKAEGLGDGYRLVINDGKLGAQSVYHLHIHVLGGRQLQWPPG
UniProt Q9H1K1, residues 35-167: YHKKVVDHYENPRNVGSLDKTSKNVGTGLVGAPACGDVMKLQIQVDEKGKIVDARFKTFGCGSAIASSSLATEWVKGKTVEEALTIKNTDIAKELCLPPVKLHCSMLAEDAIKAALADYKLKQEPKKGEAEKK
UniProt O95202, residues 116-739: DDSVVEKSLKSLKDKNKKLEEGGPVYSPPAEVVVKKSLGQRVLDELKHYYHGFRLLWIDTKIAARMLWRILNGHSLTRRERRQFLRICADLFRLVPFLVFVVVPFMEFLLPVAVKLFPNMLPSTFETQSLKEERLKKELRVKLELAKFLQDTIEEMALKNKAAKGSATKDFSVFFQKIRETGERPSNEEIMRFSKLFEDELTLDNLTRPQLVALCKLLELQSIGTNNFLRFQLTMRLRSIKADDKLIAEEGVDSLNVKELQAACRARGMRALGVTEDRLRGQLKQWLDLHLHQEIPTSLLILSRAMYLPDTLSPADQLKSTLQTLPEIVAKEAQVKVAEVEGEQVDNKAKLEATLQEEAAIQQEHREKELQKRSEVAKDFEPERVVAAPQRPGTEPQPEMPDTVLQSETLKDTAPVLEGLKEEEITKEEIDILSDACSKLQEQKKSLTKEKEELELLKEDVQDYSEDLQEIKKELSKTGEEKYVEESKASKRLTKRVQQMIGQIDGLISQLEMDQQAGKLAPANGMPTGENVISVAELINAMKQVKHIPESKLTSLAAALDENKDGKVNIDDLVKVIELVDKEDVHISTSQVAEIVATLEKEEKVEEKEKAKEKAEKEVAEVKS
UniProt P11182, residues 62-482: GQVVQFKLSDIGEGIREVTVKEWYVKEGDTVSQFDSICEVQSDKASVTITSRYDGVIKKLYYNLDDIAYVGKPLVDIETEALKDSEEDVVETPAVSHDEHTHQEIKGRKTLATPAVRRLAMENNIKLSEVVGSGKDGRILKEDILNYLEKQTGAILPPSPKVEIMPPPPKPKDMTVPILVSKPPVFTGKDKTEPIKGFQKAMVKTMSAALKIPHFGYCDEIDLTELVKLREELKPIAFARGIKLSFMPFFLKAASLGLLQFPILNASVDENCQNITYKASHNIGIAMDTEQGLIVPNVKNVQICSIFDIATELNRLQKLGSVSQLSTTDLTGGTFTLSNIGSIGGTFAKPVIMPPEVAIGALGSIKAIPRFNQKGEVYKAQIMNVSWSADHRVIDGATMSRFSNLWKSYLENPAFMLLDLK
UniProt Q9P032: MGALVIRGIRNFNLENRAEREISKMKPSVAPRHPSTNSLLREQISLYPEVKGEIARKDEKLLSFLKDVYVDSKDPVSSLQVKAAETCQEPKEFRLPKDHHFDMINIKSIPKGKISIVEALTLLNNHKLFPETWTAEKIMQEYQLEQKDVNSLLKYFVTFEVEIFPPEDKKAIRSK
UniProt Q9UI09: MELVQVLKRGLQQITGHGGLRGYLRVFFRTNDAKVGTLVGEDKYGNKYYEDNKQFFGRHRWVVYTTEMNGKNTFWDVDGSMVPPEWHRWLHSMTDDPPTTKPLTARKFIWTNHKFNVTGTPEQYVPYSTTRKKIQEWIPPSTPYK
UniProt P19404, residues 33-249: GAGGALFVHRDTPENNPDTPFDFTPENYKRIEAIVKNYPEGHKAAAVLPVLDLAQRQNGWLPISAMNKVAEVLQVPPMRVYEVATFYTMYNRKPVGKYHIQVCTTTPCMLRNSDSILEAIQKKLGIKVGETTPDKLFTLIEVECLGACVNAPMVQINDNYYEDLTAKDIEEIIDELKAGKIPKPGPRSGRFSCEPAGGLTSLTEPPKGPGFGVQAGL
UniProt P56181, residues 35-108: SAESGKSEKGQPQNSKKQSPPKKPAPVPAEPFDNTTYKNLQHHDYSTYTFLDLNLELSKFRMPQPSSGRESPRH
UniProt O75380, residues 29-124: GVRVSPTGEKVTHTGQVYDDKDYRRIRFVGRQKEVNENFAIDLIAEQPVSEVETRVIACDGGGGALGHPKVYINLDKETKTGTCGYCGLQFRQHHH
UniProt P31040, residues 43-664: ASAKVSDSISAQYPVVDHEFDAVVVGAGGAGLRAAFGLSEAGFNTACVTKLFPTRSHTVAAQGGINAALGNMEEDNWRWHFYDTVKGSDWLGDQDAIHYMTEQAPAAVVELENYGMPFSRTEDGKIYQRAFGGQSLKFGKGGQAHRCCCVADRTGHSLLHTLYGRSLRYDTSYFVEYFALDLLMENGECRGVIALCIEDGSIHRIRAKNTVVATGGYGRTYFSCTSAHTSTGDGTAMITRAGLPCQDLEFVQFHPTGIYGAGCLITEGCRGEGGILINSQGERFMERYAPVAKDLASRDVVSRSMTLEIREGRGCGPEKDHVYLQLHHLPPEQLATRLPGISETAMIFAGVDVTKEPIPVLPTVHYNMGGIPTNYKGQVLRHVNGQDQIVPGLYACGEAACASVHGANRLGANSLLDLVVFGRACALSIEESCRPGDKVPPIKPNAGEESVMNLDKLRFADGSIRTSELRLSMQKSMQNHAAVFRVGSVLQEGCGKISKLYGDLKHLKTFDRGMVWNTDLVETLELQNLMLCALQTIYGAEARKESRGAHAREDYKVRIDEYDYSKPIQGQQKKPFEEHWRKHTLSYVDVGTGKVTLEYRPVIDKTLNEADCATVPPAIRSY

No constants are given. Whether binding was seen depends on the method and setting. Binding seen in cells or lysates may run through a third protein. These calls come from enrichment with a bait or labelling near it, and not all partners need be listed. Sequences can lack the tags named with a protein.

Consider “3-oxoacyl-[acyl-carrier-protein] synthase, mitochondrial (from UniProt Q9NWU1 28-459)”, for which the binding entry is reported as “binds”. Take “10 kDa heat shock protein, mitochondrial (from UniProt P61604 1-102)”: the binding result is “binds”. Next, “AFG3-like protein 2 (from UniProt Q9Y4W6 67-797)”: “binds”; “ATP-dependent Clp protease ATP-binding subunit clpX-like, mitochondrial (from UniProt O76031 57-633)”: “binds”; “Acyl-coenzyme A thioesterase 2, mitochondrial (human (endogenous in HeLa))”: “binds”.

With “Cysteine desulfurase, mitochondrial (human (endogenous in HeLa))”, the binding entry was “binds”.

For the molecule “Cytochrome b-c1 complex subunit 7 (from UniProt P14927 1-111)”, the binding entry was “binds”.

Turning to “Elongation factor G, mitochondrial (from UniProt Q96RP9 37-751)”, the binding entry is “binds”. Next, “FAST kinase domain-containing protein 2 (human (endogenous in HeLa))”: “binds”; “GTP-binding protein 10 (from UniProt A4D1E9 1-387)”: “binds”; “Glutamate dehydrogenase, mitochondrial (from UniProt P00367 54-558)”: “binds”.

As for “Glutaminase kidney isoform, mitochondrial (from UniProt O94925 55-669)”, the binding entry is “binds”. Next, “Histidine triad nucleotide-binding protein 2, mitochondrial (from UniProt Q9BX68 18-163)”: “binds”; “Iron-sulfur cluster assembly enzyme ISCU, mitochondrial (from UniProt Q9H1K1 35-167)”: “binds”. Next, “LETM1 and EF-hand domain-containing protein 1, mitochondrial (from UniProt O95202 116-739)”: “binds”. Next, “Lipoamide acyltransferase component of branched-chain alpha-keto acid dehydrogenase complex, mitochondrial (from UniProt P11182 62-482)”: “binds”; “Mimitin, mitochondrial (human (endogenous in HeLa))”: “binds”. “Mitochondrial import inner membrane translocase subunit TIM44 (human (endogenous in HeLa))”: the binding result is recorded as “binds”. To “NADH dehydrogenase [ubiquinone] 1 alpha subcomplex assembly factor 4 (from UniProt Q9P032 1-175)” belongs “binds”; to “NADH dehydrogenase [ubiquinone] 1 alpha subcomplex subunit 12 (from UniProt Q9UI09 1-145)”, “binds”; to “NADH dehydrogenase [ubiquinone] flavoprotein 2, mitochondrial (from UniProt P19404 33-249)”, “binds”. Next, “NADH dehydrogenase [ubiquinone] flavoprotein 3, mitochondrial (from UniProt P56181 35-108)”: “binds”; NDUFS6 (from UniProt O75380 29-124): “binds”; “Succinate dehydrogenase [ubiquinone] flavoprotein subunit, mitochondrial (from UniProt P31040 43-664)”: “binds”.

B1: Pyrroline-5-carboxylate reductase 1, mitochondrial (protein, UniProt P32322 1-319)
chain: MSVGFIGAGQLAFALAKGFTAAGVLAAHKIMASSPDMDLATVSALRKMGVKLTPHNKETVQHSDVLFLAVKPHIIPFILDEIGADIEDRHIVVSCAAGVTISSIEKKLSAFRPAPRVIRCMTNTPVVVREGATVYATGTHAQVEDGRLMEQLLSSVGFCTEVEEDLIDAVTGLSGSGPAYAFTALDALADGGVKMGLPRRLAVRLGAQALLGAAKMLLHSEQHPGQLKDNVSSPGGATIHALHVLESGGFRSLLINAVEASCIRTRELQSMADQEQVSPAAIKKTILDKVKLDSPAGTALSPSGHTKLLPRSLAPAGKD
On to B1, for which the binding result is given as “binds”.

B2: Isoleucine—tRNA ligase, mitochondrial (protein, UniProt Q9NSE4 49-1012)
chain: SNHQPNSNSGRYRDTVLLPQTSFPMKLLGRQQPDTELEIQQKCGFSELYSWQRERKVKTEFCLHDGPPYANGDPHVGHALNKILKDIANRFHMMNGSKIHFVPGWDCHGLPIEIKVLSELGREAQNLSAMEIRKKARSFAKAAIEKQKSAFIRWGIMADWNNCYYTFDGKYEAKQLRTFYQMYDKGLVYRSYKPVFWSPSSRTALAEAELEYNPEHVSRSIYVKFPLLKPSPKLASLIDGSSPVSILVWTTQPWTIPANEAVCYMPESKYAVVKCSKSGDLYVLAADKVASVASTLETTFETISTLSGVDLENGTCSHPLIPDKASPLLPANHVTMAKGTGLVHTAPAHGMEDYGVASQHNLPMDCLVDEDGVFTDVAGPELQNKAVLEEGTDVVIKMLQTAKNLLKEEKLVHSYPYDWRTKKPVVIRASKQWFINITDIKTAAKELLKKVKFIPGSALNGMVEMMDRRPYWCISRQRVWGVPIPVFHHKTKDEYLINSQTTEHIVKLVEQHGSDIWWTLPPEQLLPKEVLSEVGGPDALEYVPGQDILDIWFDSGTSWSYVLPGPDQRADLYLEGKDQLGGWFQSSLLTSVAARKRAPYKTVIVHGFTLGEKGEKMSKSLGNVIHPDVVVNGGQDQSKEPPYGADVLRWWVADSNVFTEVAIGPSVLNAARDDISKLRNTLRFLLGNVADFNPETDSIPVNDMYVIDQYMLHLLQDLANKITELYKQYDFGKVVRLLRTFYTRELSNFYFSIIKDRLYCEKENDPKRRSCQTALVEILDVIVRSFAPILPHLAEEVFQHIPYIKEPKSVFRTGWISTSSIWKKPGLEEAVESACAMRDSFLGSIPGKNAAEYKVITVIEPGLLFEIIEMLQSEETSSTSQLNELMMASESTLLAQEPREMTADVIELKGKFLINLEGGDIREESSYKVIVMPTTKEKCPRCWKYTAESSDTLCPRCAEVVSGK
With B2, the binding result is recorded as “binds”.

B3: Delta(3,5)-Delta(2,4)-dienoyl-CoA isomerase, mitochondrial (protein, UniProt Q13011 34-328)
chain: TGSSAQEEASGVALGEAPDHSYESLRVTSAQKHVLHVQLNRPNKRNAMNKVFWREMVECFNKISRDADCRAVVISGAGKMFTAGIDLMDMASDILQPKGDDVARISWYLRDIITRYQETFNVIERCPKPVIAAVHGGCIGGGVDLVTACDIRYCAQDAFFQVKEVDVGLAADVGTLQRLPKVIGNQSLVNELAFTARKMMADEALGSGLVSRVFPDKEVMLDAALALAAEISSKSPVAVQSTKVNLLYSRDHSVAESLNYVASWNMSMLQTQDLVKSVQATTENKELKTVTFSKL
Regarding B3, the binding result is listed as “binds”.

B4: Mitochondrial ribonuclease P protein 1 (protein, UniProt Q7L0Y3 40-403)
chain: MSSKIPAVTYPKNESTPPSEELELDKWKTTMKSSVQEECVSTISSSKDEDPLAATREFIEMWRLLGREVPEHITEEELKTLMECVSNTAKKKYLKYLYTKEKVKKARQIKKEMKAAAREEAKNIKLLETTEEDKQKNFLFLRLWDRNMDIAMGWKGAQAMQFGQPLVFDMAYENYMKRKELQNTVSQLLESEGWNRRNVDPFHIYFCNLKIDGALHRELVKRYQEKWDKLLLTSTEKSHVDLFPKDSIIYLTADSPNVMTTFRHDKVYVIGSFVDKSMQPGTSLAKAKRLNLATECLPLDKYLQWEIGNKNLTLDQMIRILLCLKNNGNWQEALQFVPKRKHTGFLEISQHSQEFINRLKKAKT
As for B4, the binding result is recorded as “binds”.

B5: 3-hydroxyacyl-CoA dehydrogenase type-2 (protein, UniProt Q99714 1-261)
chain: MAAACRSVKGLVAVITGGASGLGLATAERLVGQGASAVLLDLPNSGGEAQAKKLGNNCVFAPADVTSEKDVQTALALAKGKFGRVDVAVNCAGIAVASKTYNLKKGQTHTLEDFQRVLDVNLMGTFNVIRLVAGEMGQNEPDQGGQRGVIINTASVAAFEGQVGQAAYSASKGGIVGMTLPIARDLAPIGIRVMTIAPGLFGTPLLTSLPEKVCNFLASQVPFPSRLGDPAEYAHLVQAIIENPFLNGEVIRLDGAIRMQP
Take B5: the binding entry is given as “binds”.

B6: Acyl-coenzyme A thioesterase 1 (protein, UniProt Q86TX2 1-421)
chain: MAATLILEPAGRCCWDEPVRIAVRGLAPEQPVTLRASLRDEKGALFQAHARYRADTLGELDLERAPALGGSFAGLEPMGLLWALEPEKPLVRLVKRDVRTPLAVELEVLDGHDPDPGRLLCRVRHERYFLPPGVRREPVRAGRVRGTLFLPPEPGPFPGIVDMFGTGGGLLEYRASLLAGKGFAVMALAYYNYEDLPKTMETLHLEYFEEAVNYLLSHPEVKGPGVGLLGISKGGELCLSMASFLKGITAAVVINGSVANVGGTLRYKGETLPPVGVNRNRIKVTKDGYADIVDVLNSPLEGPDQKSFIPVERAESTFLFLVGQDDHNWKSEFYANEACKRLQAHGRRKPQIICYPETGHYIEPPYFPLCRASLHALVGSPIIWGGEPRAHAMAQVDAWKQLQTFFHKHLGGHEGTIPSKV
In the case of B6, the binding entry is on record as “binds”.

B7: Glycine amidinotransferase, mitochondrial (protein, UniProt P50440 44-423)
chain: ASSRNSCAADDKATEPLPKDCPVSSYNEWDPLEEVIVGRAENACVPPFTIEVKANTYEKYWPFYQKQGGHYFPKDHLKKAVAEIEEMCNILKTEGVTVRRPDPIDWSLKYKTPDFESTGLYSAMPRDILIVVGNEIIEAPMAWRSRFFEYRAYRSIIKDYFHRGAKWTTAPKPTMADELYNQDYPIHSVEDRHKLAAQGKFVTTEFEPCFDAADFIRAGRDIFAQRSQVTNYLGIEWMRRHLAPDYRVHIISFKDPNPMHIDATFNIIGPGIVLSNPDRPCHQIDLFKKAGWTIITPPTPIIPDDHPLWMSSKWLSMNVLMLDEKRVMVDANEVPIQKMFEKLGITTIKVNIRNANSLGGGFHCWTCDVRRRGTLQSYLD
As to B7, the binding result is “binds”.
